Measured values published in the supplement of paper PMC10849652.
Some of the results follow.

Sequences of proteins named here, by UniProt entry; tags and fusion partners are left off. A change or cut given only in a name is not applied to a line headed by its entry.
UniProt P56377: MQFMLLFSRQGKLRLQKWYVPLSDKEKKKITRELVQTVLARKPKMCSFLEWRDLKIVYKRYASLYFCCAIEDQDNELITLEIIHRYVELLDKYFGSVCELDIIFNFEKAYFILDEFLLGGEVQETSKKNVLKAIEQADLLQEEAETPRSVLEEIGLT
UniProt O14617: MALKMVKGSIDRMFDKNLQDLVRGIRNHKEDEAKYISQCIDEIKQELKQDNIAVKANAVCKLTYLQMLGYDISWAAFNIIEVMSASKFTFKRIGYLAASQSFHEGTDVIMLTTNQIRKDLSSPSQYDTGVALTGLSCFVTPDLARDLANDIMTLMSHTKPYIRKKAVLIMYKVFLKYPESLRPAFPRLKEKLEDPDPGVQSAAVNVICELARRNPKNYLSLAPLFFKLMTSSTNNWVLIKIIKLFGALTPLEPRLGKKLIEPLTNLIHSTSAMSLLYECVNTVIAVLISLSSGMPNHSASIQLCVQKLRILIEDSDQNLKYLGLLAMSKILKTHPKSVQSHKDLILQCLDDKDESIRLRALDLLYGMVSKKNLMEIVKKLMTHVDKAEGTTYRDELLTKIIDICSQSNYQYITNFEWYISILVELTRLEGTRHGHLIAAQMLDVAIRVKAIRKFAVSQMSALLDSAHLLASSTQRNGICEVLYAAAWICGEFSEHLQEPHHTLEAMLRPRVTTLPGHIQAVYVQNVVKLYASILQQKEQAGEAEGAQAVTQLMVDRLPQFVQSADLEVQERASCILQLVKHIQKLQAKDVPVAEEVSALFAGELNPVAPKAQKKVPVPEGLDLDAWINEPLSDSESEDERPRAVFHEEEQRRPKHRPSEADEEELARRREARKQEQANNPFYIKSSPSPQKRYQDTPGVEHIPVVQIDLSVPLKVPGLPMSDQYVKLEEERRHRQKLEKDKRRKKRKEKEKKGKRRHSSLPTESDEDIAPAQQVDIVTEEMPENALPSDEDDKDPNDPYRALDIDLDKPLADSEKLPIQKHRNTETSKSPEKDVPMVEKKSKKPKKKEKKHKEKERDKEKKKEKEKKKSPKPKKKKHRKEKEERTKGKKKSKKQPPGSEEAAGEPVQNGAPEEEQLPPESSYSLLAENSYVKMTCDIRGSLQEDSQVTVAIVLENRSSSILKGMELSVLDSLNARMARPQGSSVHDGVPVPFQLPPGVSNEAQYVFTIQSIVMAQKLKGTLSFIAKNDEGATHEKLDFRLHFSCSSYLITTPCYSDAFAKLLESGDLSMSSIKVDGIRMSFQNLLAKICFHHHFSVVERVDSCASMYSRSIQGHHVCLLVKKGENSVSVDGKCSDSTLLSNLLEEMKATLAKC
UniProt Q6NS38: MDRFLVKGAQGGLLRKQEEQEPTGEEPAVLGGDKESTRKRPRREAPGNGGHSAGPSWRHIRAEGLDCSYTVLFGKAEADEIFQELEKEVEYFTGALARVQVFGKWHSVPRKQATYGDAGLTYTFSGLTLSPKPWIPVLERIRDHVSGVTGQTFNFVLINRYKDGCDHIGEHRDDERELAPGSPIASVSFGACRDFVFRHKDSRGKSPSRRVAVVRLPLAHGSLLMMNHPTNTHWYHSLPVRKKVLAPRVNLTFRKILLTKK
UniProt Q96Q42: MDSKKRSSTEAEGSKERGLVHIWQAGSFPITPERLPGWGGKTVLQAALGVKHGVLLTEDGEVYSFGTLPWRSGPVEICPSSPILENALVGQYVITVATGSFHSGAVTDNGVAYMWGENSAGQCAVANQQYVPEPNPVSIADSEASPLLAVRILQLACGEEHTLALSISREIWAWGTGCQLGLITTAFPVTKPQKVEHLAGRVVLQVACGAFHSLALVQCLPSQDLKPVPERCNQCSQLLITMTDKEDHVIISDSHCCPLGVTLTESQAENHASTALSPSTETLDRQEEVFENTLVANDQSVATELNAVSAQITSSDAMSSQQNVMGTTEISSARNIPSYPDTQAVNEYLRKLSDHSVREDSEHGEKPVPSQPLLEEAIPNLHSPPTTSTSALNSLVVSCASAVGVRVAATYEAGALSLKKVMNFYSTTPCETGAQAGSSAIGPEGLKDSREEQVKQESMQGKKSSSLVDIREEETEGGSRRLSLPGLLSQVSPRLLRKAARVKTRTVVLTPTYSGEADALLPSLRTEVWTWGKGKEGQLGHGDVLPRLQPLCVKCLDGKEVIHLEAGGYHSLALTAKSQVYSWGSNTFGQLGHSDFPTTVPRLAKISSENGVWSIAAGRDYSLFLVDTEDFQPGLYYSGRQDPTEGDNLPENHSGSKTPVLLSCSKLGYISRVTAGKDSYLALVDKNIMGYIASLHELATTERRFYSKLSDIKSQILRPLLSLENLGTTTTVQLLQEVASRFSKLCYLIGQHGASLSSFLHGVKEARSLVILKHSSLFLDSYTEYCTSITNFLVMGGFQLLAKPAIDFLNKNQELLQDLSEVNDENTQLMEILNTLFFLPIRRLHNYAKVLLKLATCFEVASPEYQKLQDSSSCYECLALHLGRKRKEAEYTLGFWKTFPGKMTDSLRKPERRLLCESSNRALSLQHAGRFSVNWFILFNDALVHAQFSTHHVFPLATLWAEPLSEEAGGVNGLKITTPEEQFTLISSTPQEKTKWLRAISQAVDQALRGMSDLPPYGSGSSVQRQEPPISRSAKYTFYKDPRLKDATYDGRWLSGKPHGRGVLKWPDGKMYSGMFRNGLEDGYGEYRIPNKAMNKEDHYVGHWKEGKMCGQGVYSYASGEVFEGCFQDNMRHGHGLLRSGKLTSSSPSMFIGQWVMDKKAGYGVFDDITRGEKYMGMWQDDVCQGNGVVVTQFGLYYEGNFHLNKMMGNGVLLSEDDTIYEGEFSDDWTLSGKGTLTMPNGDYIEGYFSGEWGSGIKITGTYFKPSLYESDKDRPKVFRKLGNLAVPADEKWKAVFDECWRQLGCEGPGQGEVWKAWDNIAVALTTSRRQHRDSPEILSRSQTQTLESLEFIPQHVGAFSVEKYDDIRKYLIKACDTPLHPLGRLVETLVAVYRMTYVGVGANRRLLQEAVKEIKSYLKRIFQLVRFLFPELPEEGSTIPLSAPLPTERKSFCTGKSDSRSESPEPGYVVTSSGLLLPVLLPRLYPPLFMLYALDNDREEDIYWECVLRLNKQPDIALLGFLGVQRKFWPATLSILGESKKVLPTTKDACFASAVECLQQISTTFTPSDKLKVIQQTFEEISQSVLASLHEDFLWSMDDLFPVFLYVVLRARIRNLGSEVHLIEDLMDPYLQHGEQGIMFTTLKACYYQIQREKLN
UniProt P39687: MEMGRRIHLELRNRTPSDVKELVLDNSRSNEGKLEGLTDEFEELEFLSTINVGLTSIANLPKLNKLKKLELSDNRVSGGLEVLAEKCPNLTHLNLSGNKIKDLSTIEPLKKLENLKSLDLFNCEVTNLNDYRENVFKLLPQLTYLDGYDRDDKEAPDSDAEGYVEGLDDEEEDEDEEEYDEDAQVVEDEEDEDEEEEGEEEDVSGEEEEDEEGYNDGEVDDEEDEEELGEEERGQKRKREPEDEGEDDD
UniProt Q6NXT1: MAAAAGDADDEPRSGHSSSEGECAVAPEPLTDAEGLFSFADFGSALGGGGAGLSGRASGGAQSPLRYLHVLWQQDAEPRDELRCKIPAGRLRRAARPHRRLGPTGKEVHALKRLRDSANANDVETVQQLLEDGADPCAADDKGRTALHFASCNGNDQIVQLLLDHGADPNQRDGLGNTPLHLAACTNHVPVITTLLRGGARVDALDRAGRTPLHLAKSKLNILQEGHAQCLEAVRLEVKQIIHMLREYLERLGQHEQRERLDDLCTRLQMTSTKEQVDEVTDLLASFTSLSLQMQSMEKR
UniProt Q9H553: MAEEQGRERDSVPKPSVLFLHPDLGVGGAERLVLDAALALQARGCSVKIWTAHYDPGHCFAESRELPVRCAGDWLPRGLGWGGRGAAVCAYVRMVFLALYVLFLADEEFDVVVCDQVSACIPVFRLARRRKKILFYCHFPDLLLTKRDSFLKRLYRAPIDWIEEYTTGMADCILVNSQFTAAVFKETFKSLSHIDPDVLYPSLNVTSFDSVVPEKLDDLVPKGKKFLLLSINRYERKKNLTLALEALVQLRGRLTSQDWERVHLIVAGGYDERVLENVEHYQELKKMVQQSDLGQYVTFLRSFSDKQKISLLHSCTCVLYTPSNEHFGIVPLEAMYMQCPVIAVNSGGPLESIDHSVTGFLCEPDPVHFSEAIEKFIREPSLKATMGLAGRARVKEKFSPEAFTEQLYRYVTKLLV
UniProt Q8NB46: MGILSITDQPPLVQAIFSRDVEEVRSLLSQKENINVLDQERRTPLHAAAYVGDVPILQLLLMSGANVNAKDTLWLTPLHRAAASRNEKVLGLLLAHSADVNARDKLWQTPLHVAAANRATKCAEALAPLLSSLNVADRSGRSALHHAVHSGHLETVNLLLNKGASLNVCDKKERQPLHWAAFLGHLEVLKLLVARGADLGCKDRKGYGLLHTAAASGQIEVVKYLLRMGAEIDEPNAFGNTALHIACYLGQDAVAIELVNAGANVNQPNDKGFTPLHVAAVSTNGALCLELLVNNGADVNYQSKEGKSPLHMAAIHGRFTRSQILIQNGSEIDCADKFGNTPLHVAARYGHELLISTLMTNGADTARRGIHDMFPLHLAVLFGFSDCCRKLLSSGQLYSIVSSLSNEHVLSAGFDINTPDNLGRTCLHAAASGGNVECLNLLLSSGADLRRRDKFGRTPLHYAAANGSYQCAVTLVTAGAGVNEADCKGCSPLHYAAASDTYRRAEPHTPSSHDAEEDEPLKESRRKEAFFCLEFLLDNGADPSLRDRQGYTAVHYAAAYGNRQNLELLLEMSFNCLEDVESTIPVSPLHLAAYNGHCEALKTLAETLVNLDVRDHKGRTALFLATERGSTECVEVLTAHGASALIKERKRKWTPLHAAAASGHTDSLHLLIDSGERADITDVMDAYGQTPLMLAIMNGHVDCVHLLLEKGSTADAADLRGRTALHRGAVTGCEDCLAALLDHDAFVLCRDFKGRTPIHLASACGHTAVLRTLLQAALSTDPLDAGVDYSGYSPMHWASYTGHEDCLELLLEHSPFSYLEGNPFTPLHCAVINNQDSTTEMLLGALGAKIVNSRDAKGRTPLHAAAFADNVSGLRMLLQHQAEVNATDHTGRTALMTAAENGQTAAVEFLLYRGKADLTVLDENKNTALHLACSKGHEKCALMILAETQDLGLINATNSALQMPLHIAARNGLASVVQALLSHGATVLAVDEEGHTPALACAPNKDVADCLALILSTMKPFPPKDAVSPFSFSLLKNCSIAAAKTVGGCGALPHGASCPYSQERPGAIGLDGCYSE
UniProt P20073: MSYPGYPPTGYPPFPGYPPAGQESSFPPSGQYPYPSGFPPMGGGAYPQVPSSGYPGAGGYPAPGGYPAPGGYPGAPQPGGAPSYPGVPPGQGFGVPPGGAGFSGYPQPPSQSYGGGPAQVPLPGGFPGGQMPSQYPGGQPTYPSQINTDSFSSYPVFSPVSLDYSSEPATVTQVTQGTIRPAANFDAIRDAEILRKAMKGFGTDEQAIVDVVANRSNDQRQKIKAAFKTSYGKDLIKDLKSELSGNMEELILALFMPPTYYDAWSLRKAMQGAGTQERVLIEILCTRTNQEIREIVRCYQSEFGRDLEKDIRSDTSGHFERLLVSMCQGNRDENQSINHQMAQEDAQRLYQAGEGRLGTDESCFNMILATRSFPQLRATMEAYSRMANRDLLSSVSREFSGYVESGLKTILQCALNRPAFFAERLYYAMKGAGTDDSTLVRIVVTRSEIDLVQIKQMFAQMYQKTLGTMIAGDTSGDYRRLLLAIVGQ
UniProt Q01432: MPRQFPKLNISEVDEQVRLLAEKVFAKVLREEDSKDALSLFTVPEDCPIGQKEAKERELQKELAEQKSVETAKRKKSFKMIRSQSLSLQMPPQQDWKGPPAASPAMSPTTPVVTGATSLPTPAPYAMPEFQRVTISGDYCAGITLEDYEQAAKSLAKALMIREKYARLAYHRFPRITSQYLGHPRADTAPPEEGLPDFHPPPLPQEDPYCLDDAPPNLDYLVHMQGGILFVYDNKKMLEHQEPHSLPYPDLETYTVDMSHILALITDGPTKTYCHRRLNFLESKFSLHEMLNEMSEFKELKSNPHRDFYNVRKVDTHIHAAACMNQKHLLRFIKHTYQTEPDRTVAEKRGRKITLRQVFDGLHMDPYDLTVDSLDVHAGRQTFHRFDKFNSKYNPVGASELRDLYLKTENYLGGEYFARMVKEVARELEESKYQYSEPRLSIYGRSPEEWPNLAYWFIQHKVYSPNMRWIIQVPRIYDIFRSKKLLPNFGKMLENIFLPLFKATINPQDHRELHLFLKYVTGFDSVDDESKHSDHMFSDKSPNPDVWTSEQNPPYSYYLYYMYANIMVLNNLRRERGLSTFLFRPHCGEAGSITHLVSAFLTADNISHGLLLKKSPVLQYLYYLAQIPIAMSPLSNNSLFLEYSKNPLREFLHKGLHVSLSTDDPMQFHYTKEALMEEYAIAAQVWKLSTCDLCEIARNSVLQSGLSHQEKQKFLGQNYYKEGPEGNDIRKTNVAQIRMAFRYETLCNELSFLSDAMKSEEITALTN

Compound: CC(C)C1=C2N=C(C=C(N2N=C1)NCC3=CC=CC=C3)NCCCCCCN
Test: log2 fold change, soluble protein after heating vs DMSO (PISA); higher = thermal stabilisation; K562 lysate, 10 uM; active = over 0.2 and 3.5 SD of the protein, either way, in both replicates (recomputed)
Summary of the method: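 Thermal stability, expressed as log-two fold change relative to solvent controls, is given from duplicates. Crude K562 extract in PBS pH 7.4 with 1 mM MgCl2, at 1 mg/mL protein, was treated with 10 μM compound for 30 min and heated in aliquots for 3 min across 48°C-58°C. After pooling, adjustment to 0.5% NP-40 at 4°C and centrifugation at 21,000xg for 90 min, supernatant protein was measured by TMTpro 16plex LC-MS/MS with channel sums equalised.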

log2 fold change, inactive:
AP1S2 isoform 2 (UniProt P56377) -0.041, ANAPC10 (UniProt Q9UM13) 0.182, ANKRD13D isoform 3 (UniProt Q6ZTN6) -0.105, AP3D1 isoform 5 (UniProt O14617) -0.007, ALKBH2 (UniProt Q6NS38) 0.068, AP3S1 (UniProt Q92572) 0.021, ALDH6A1 (UniProt Q02252) 0.008, ANGEL2 (UniProt Q5VTE6) 0.189, ALS2 (UniProt Q96Q42) 0.21, AKT2 (UniProt P31751) -0.006, ANXA2 isoform 2 (UniProt P07355) -0.01, ANP32A (UniProt P39687) -0.041, ANTXR2 isoform 4 (UniProt P58335) -0.034, AP3B2 isoform 4 (UniProt Q13367) -0.006, ALDH18A1 (UniProt P54886) -0.001, ANKRD54 (UniProt Q6NXT1) 0.044, ALG2 (UniProt Q9H553) -0.022, ALDH4A1 (UniProt P30038) -0.061, ALDH1A1 (UniProt P00352) -0.029, ANKRD52 (UniProt Q8NB46) 0.022, ANXA7 (UniProt P20073) 0.002, AMPD3 isoform 4 (UniProt Q01432) -0.019
